No constants are given. Whether binding was seen depends on the method and setting. Binding seen in cells or lysates may run through a third protein. Some results given as binding are weak or reduced against the parent protein; the word gives no strength.
Experiments:
OCT4 (human) [1] = biological target: OCT4 (human) (UniProt Q01860); experiment: co-immunoprecipitation: IP with NANOG pAb from lysate of VPA-treated CD34+ cells, Western blot with OCT4 pAb
OCT4 (human) [2] = biological target: OCT4 (human) (UniProt Q01860); experiment: co-immunoprecipitation: IP with NANOG pAb from lysates of VPA-expanded cells and ES cells, Western blot with OCT4 pAb

The chains behind the UniProt entries cited, without tags or fusion partners.
UniProt Q01860: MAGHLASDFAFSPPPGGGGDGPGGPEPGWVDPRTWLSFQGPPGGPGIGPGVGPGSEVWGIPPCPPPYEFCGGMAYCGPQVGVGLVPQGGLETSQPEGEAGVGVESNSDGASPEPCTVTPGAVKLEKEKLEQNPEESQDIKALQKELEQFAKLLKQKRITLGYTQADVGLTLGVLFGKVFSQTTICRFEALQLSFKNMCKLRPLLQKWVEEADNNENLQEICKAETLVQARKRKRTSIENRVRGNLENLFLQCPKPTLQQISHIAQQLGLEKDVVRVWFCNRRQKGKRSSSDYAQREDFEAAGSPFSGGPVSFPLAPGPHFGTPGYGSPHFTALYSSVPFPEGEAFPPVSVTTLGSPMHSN
UniProt Q9H9S0: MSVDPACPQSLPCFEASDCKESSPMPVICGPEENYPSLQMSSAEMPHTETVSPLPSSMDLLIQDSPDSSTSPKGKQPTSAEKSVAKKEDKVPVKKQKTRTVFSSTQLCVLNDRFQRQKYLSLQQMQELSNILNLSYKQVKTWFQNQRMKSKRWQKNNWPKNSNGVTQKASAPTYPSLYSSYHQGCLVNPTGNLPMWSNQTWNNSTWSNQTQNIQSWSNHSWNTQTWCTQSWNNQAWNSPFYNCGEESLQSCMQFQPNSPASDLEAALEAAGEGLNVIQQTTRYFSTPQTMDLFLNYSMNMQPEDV

- binding (OCT4 (human) [1]): binds
- binding (OCT4 (human) [2]): binds
Substance: NANOG (from UniProt Q9H9S0 1-305)
